PubChem BioAssay AID1259254 | NCATS | 2017

Test: 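Finding genes that stop cells copying their DNA twice in one cycle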 (primary screen)
Cell system: human HCT116 colorectal cancer cells
Knock-down reagent: single siRNA against human genes
Duration: 3 days
Measurement: 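Imaged Hoechst DNA stain sorts each cell into a cycle phase by DNA amount; per plate, G2 fraction set to 0% for non-targeting and 100% for GMNN siRNA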
Reading the numbers: G2 robust z-score and G2 cells, % of GMNN control: higher = more G2 cells, more excess DNA replication
Call rule: 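An siRNA counts as active if its G2 robust z-score lies at least 5 MADs above the screen median; here such calls match roughly 38% of GMNN control or more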
In all, the deposit lists about 59,000 reagents; this is a random part of them. Of all reagents, about 1,550 (2.6%) got an active call. 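G2 share is only a proxy for re-replication; each gene was hit by three separate siRNAs, and active genes were retested.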 Reagents against one gene are numbered here. Not all columns of the deposit are shown. Reagent sequences are not shown. The record does not give: the amount of reagent.

TCIRG1 #1: G2 robust z-score = 6.1; G2 cells, % of GMNN control = 45.9; activity call = active
TCIRG1 #2: G2 robust z-score = -1.34; G2 cells, % of GMNN control = -6.43; activity call = inactive
TCIRG1 #3: G2 robust z-score = -0.999; G2 cells, % of GMNN control = -4.06; activity call = inactive
PLAC4 (placenta associated 4) #1: G2 robust z-score = 0.766; G2 cells, % of GMNN control = 8.35; activity call = inactive
PLAC4 (placenta associated 4) #2: G2 robust z-score = -0.447; G2 cells, % of GMNN control = -0.174; activity call = inactive
PLAC4 (placenta associated 4) #3: G2 robust z-score = -0.718; G2 cells, % of GMNN control = -2.08; activity call = inactive
ATP5MF (ATP synthase membrane subunit f) #1: G2 robust z-score = 0.0108; G2 cells, % of GMNN control = 3.04; activity call = inactive
ATP5MF (ATP synthase membrane subunit f) #2: G2 robust z-score = -0.569; G2 cells, % of GMNN control = -1.03; activity call = inactive
ATP5MF (ATP synthase membrane subunit f) #3: G2 robust z-score = -0.404; G2 cells, % of GMNN control = 0.123; activity call = inactive
IL12RB2 (interleukin 12 receptor subunit beta 2) #1: G2 robust z-score = -1.15; G2 cells, % of GMNN control = -5.09; activity call = inactive
IL12RB2 (interleukin 12 receptor subunit beta 2) #2: G2 robust z-score = -0.42; G2 cells, % of GMNN control = 0.01; activity call = inactive
IL12RB2 (interleukin 12 receptor subunit beta 2) #3: G2 robust z-score = 2.14; G2 cells, % of GMNN control = 18; activity call = inactive
CDK7 (cyclin dependent kinase 7) #1: G2 robust z-score = 3.12; G2 cells, % of GMNN control = 24.9; activity call = inactive
CDK7 (cyclin dependent kinase 7) #2: G2 robust z-score = -0.626; G2 cells, % of GMNN control = -1.44; activity call = inactive
CDK7 (cyclin dependent kinase 7) #3: G2 robust z-score = 0.252; G2 cells, % of GMNN control = 4.74; activity call = inactive
TDRD6 (tudor domain containing 6) #1: G2 robust z-score = -1.1; G2 cells, % of GMNN control = -4.78; activity call = inactive
TDRD6 (tudor domain containing 6) #2: G2 robust z-score = 0.0202; G2 cells, % of GMNN control = 3.11; activity call = inactive
TDRD6 (tudor domain containing 6) #3: G2 robust z-score = 1.55; G2 cells, % of GMNN control = 13.9; activity call = inactive
LOC442132 (golgin A6 family-like 1 pseudogene) #1: G2 robust z-score = 1.93; G2 cells, % of GMNN control = 16.6; activity call = inactive
LOC442132 (golgin A6 family-like 1 pseudogene) #2: G2 robust z-score = 0.657; G2 cells, % of GMNN control = 7.59; activity call = inactive
LOC442132 (golgin A6 family-like 1 pseudogene) #3: G2 robust z-score = 0.176; G2 cells, % of GMNN control = 4.21; activity call = inactive
MISP (mitotic spindle positioning) #1: G2 robust z-score = 0.859; G2 cells, % of GMNN control = 9.01; activity call = inactive
MISP (mitotic spindle positioning) #2: G2 robust z-score = 7.1; G2 cells, % of GMNN control = 52.9; activity call = active
MISP (mitotic spindle positioning) #3: G2 robust z-score = -0.371; G2 cells, % of GMNN control = 0.36; activity call = inactive

2 entries from above, limited to “G2 robust z-score”:
PLAC4 (placenta associated 4) #2	-0.447
PLAC4 (placenta associated 4) #3	-0.718
